Common to all, as to conditions: 10 µM; pre-incubation: 30-90 min
For test [1], the system named is Danio rerio larvae (5 dpf, TLF). Put plainly: OMR-Perf (SSMD vs DMSO vehicle); higher = higher than vehicle (e.g. higher dark-flash O-bend response probability, or better optomotor performance).
For test [2] the test system is unchanged. The experiment in a line: Prob-Test (SSMD vs DMSO vehicle); higher = higher than vehicle (e.g. higher dark-flash O-bend response probability, or better optomotor performance).
The test system is the same in test [3]. The experiment in a line: Prob-Naive (SSMD vs DMSO vehicle); higher = higher than vehicle (e.g. higher dark-flash O-bend response probability, or better optomotor performance).
Test [4] has the same test system. Put plainly: Prob-Train (SSMD vs DMSO vehicle); higher = higher than vehicle (e.g. higher dark-flash O-bend response probability, or better optomotor performance).

The structures appear in SMILES notation. Some of the results follow. Single values are uncertain here, since repeats match poorly.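 Researchers measured free-swimming zebrafish larvae's O-bend response probability to dark flashes (naive: first five; training: remaining flashes of four 60-flash blocks; test: later 60-flash block) and OMR turning toward alternating leftward/rightward LED motion. Six treated larvae were compared to sixty 0.1% DMSO controls, with |SSMD|≥2 marking a hit.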

`CN(C)[C@@H](CCOc1cccc2ccccc12)c1ccccc1.Cl` [Dapoxetine HCl] gave an OMR-Perf in test [1] of -0.47. The Prob-Test in test [2] is -1.29. This compound also displayed a Prob-Naive in test [3] of -2.07. Besides, in test [4], the Prob-Train is -1.9.

For `C[C@@H](CN1CC(=O)NC(=O)C1)N1CC(=O)NC(=O)C1.Cl` [Dexrazoxane HCl (ICRF-187, ADR-529)], the OMR-Perf in test [1] is -0.075. The same compound had a Prob-Test in test [2] of -0.322. The Prob-Naive in test [3] is -0.269. In addition, the Prob-Train in test [4] was -0.42.

For `COc1cc2c(cc1O)CC[C@@H]1[C@H]2CC[C@]2(C)[C@H](O)CC[C@@H]12` [2-Methoxyestradiol (2-MeOE2)], the OMR-Perf in test [1] was -0.0662. The compound further came in with a Prob-Test in test [2] of 0.144. Further, the Prob-Naive in test [3] worked out at 0.0292. In test [4], the Prob-Train is -0.176.

In test [1], `CC[C@H](Nc1ncnc2[nH]cnc12)c1nc2cccc(F)c2c(=O)n1-c1ccccc1` [CAL-101 (Idelalisib, GS-1101)] came in with an OMR-Perf of 0.416. Further, the Prob-Test in test [2] is -0.204. In addition, the Prob-Naive in test [3] is -0.397. The Prob-Train in test [4] is -0.322.

Consider `C[C@]12CC[C@H]3c4ccc(O)cc4CC[C@H]3[C@@H]1C[C@@H](O)[C@H]2O` [Estriol], for which the OMR-Perf in test [1] is 0.229. This compound showed a Prob-Test in test [2] of -0.225. For the same compound, the Prob-Naive in test [3] was found to be 0.374. The same compound displayed a Prob-Train in test [4] of 0.362.

Regarding `CC[C@H]1OC(=O)[C@@H](C)[C@@H](O[C@H]2C[C@@](C)(OC)[C@@H](O)[C@H](C)O2)[C@H](C)[C@@H](O[C@@H]2O[C@H](C)C[C@H](N(C)C)[C@@H]2O)[C@](C)(O)C[C@@H](C)CN(C)[C@H](C)[C@@H](O)[C@]1(C)O` [Azithromycin], the OMR-Perf in test [1] was -0.78. The compound also returned a Prob-Test in test [2] of 0.5. In test [3], this compound had a Prob-Naive of 0.0343. This compound also displayed a Prob-Train in test [4] of 0.347.

With `CCO[C@H]1OC(=O)C[C@@H]1NC(=O)[C@@H]1CCCN1C(=O)[C@@H](NC(=O)c1ccc(N)c(Cl)c1)C(C)(C)C`, the OMR-Perf in test [1] amounted to 0.106. In addition, the Prob-Test in test [2] was -0.023. This compound displayed a Prob-Naive in test [3] of -0.159. The compound also showed a Prob-Train in test [4] of -0.482.

For `COc1cc(C(C)=O)ccc1OCCCN1CCC(c2noc3cc(F)ccc23)CC1` [Iloperidone], the OMR-Perf in test [1] is -1.01. Also, the Prob-Test in test [2] is -1.15. Moreover, the Prob-Naive in test [3] came to 0.26. In test [4], this compound came in with a Prob-Train of 0.233.

For `O=C(O)CCC(=O)O.O=C(O[C@H]1CN2CCC1CC2)N1CCc2ccccc2[C@@H]1c1ccccc1` [Solifenacin succinate], in test [1], the OMR-Perf was -0.504. Further, the Prob-Test in test [2] was -0.592. The Prob-Naive in test [3] was found to be 5.13e-16. For the same compound, the Prob-Train in test [4] was -0.739.

`CC(C(=O)[O-])c1cccc(Oc2ccccc2)c1.CC(C(=O)[O-])c1cccc(Oc2ccccc2)c1.[Ca+2]` (stereo not given) [Fenoprofen Calcium] had an OMR-Perf in test [1] of -0.425. In addition, the Prob-Test in test [2] is -1.49. Moreover, the Prob-Naive in test [3] is -0.803. The Prob-Train in test [4] was -2.07.

As for `Cc1c(Cn2c(C)nc3c(C(=O)O)cc(N4CCOCC4)cc32)cccc1C(F)(F)F`, the OMR-Perf in test [1] was -0.8. The Prob-Test in test [2] came to 0.371. The Prob-Naive in test [3] is 0.515. For the same compound, in test [4], the Prob-Train amounted to 0.565.

In test [1], `Cc1c(Cl)cccc1Nc1ccccc1C(=O)O` [Tolfenamic Acid] gave an OMR-Perf of -0.278. The compound further registered a Prob-Test in test [2] of -1.12. In addition, in test [3], the Prob-Naive was -2.5. Further, the Prob-Train in test [4] is -2.19.

With `O=C(NCCO[N+](=O)[O-])c1cccnc1` [Nicorandil], in test [1], the OMR-Perf was -0.0137. Besides, in test [2], the Prob-Test stood at 0.00705. In test [3], this compound gave a Prob-Naive of 0.536. This compound also came in with a Prob-Train in test [4] of 0.477.

`CNC(=O)c1nn(C)c2c1C(C)(C)Cc1cnc(Nc3ccc(N4CCN(C)CC4)cc3)nc1-2` came in with an OMR-Perf in test [1] of -0.479. In addition, the Prob-Test in test [2] is -0.379. The compound further came in with a Prob-Naive in test [3] of -0.0697. The same compound showed a Prob-Train in test [4] of -0.171.

With `C=CC1=C(C(=O)O)N2C(=O)[C@@H](NC(=O)/C(=N\O)c3csc(N)n3)[C@H]2SC1` [Cefdinir], in test [1], the OMR-Perf is -0.268. Also, the Prob-Test in test [2] is -0.153. The compound also gave a Prob-Naive in test [3] of 0.292. For the same compound, the Prob-Train in test [4] is 0.113.

As for `C[C@@H]1CN(CC(=O)Nc2ccc3c(c2)Cc2cccc(-c4cc(=O)cc(N5CCOCC5)o4)c2S3)C[C@H](C)O1`, the OMR-Perf in test [1] is -0.346. In test [2], this compound had a Prob-Test of -0.411. Moreover, the Prob-Naive in test [3] amounted to 0.173. The same compound had a Prob-Train in test [4] of -0.00194.

In turn, `COc1ccc2[n-]c(S(=O)Cc3ncc(C)c(OC)c3C)nc2c1.[Na+]` (stereo not given) [Esomeprazole Sodium] came in with an OMR-Perf in test [1] of -0.222. The Prob-Test in test [2] is 0.0553. In test [3], this compound gave a Prob-Naive of -0.388. Besides, in test [4], the Prob-Train is -0.127.

For the compound `C[C@H]1C[C@H]2[C@@H]3CCC4=CC(=O)C=C[C@]4(C)[C@@H]3C(=O)C[C@]2(C)[C@]1(O)C(=O)CO` [Meprednisone], the OMR-Perf in test [1] is -0.0129. This compound also displayed a Prob-Test in test [2] of 0.54. The Prob-Naive in test [3] came to 0.454. The same compound displayed a Prob-Train in test [4] of 0.279.

In turn, `CN(C)CC[C@H](CSc1ccccc1)Nc1ccc(S(=O)(=O)NC(=O)c2ccc(N3CCN(Cc4ccccc4-c4ccc(Cl)cc4)CC3)cc2)cc1[N+](=O)[O-]` had an OMR-Perf in test [1] of 0.194. The Prob-Test in test [2] was -0.131. Moreover, the Prob-Naive in test [3] was -0.746. In test [4], this compound gave a Prob-Train of -0.189.

As for `CCCCN(CCCC)CCCOC(=O)c1ccc(N)cc1` [Butacaine], the OMR-Perf in test [1] was -0.726. Further, the Prob-Test in test [2] amounted to 0.174. In test [3], this compound displayed a Prob-Naive of -0.154. The Prob-Train in test [4] is 0.31.

Compound `COc1cccc2c1C(=O)c1c(O)c3c(c(O)c1C2=O)C[C@@](O)(C(=O)CO)C[C@H]3O[C@H]1C[C@H](N)[C@H](O)[C@H](C)O1.Cl` [Doxorubicin (Adriamycin)] displayed an OMR-Perf in test [1] of 0.0748. In test [2], the Prob-Test was found to be 0.257. Also, the Prob-Naive in test [3] amounted to 0.454. This compound also gave a Prob-Train in test [4] of 0.404.

With `CC(=O)Oc1cc(C(F)(F)F)ccc1C(=O)O` [Triflusal], the OMR-Perf in test [1] was determined as 0.471. In addition, the Prob-Test in test [2] is -0.0728. The same compound showed a Prob-Naive in test [3] of -0.187. In addition, the Prob-Train in test [4] is -0.424.

As for `CCC(C)(Oc1ccc(C2(c3ccc(OC(C)(CC)C(=O)O)cc3)CCCCC2)cc1)C(=O)O` (stereo not given) [Clinofibrate], the OMR-Perf in test [1] is -0.204. In test [2], this compound gave a Prob-Test of 0.332. The Prob-Naive in test [3] was -0.0932. Further, in test [4], the Prob-Train was -0.147.

`Cc1ccc(C(=O)NCCCCCC(=O)Nc2ccccc2N)cc1` registered an OMR-Perf in test [1] of -0.3. In test [2], this compound displayed a Prob-Test of -0.148. The compound also registered a Prob-Naive in test [3] of 0.146. Moreover, in test [4], the Prob-Train came to 0.0911.

For `O=C(NOCC1CC1)c1ccc(F)c(F)c1Nc1ccc(I)cc1Cl`, the OMR-Perf in test [1] was -0.925. This compound came in with a Prob-Test in test [2] of -1.91. The same compound yielded a Prob-Naive in test [3] of -0.71. Also, the Prob-Train in test [4] is -2.96.

(Values after the supplement of paper PMC10727501.)
